According to PubChem BioAssay AID1347075 (National Center for Advancing Translational Sciences (NCATS), 2019):
In all, about 400,000 compounds went through this assay and about 5,500 (1.4%) were called active. The shares of active, inactive and inconclusive entries below differ from those in the screen. Calls follow the shape of the dose curve; as a rule, active = well fitted cell-killing curve with a large enough effect; inconclusive = small, poorly fitted or top-dose-only effect, or effect the other way; inactive = flat fitted curve, though single readings scatter. Potencies of inconclusive entries are doubtful fits and often do not repeat.

Assay: qHTS assay for MDR1-selective chemotherapeutics: Primary screen using the parental adenocarcinoma cell KB-3-1; also: nearly all actives have a fitted effect of over 60% in size
Conditions: KB-3-1 viability, CellTiter-Glo ATP luminescence, 72 h; activity change, negative = cytotoxic: at 46.1 µM (top of the series)
Procedure, shortened: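 KB-3-1 parental drug-naive adenocarcinoma cells in DMEM/10% FBS, incubated 72 h at 37 C with pin-transferred compounds across a concentration series. Viability by CellTiter-Glo luminescence; concentration-response curves fitted after normalization.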
% is scaled to controls: 0 for no effect and ±100 for the full control effect; potency is read from the fitted curve at half-maximal effect.

Row | SMILES | Potency | activity change, negative = cytotoxic
1 | CCOC(=O)N1CCC(N2Cc3cccc(C(=O)NCc4ccccc4OC)c3C2=O)CC1 | inconclusive: 18.4 µM [cytotoxic, single point] | –
2 | CC1(C)CC2CC(C)(CN2C(=O)COC(=O)c2cncc(Br)c2)C1 (configuration not stated) | – | inactive: 18.6%
3 | CC(C)CCNC(=O)C(c1cccnc1)N(Cc1ccccc1)C(=O)Cn1nnc2ccccc21 (configuration not stated) | – | inconclusive: -4.24%
4 | CCc1ccc(OCCNC(=O)c2ccccc2SCc2ccc(F)cc2)cc1 | – | inactive: -16.6%
5 | O=S(=O)(c1ccccc1)N1CCN(c2cccc(Cl)c2)CC1 | – | inactive: -14.8%
6 | O=S(=O)(NCc1c(Cl)cccc1Oc1ccccc1)c1ccccc1 | inconclusive: 25.9 µM [cytotoxic, single point] | –
7 | CCOc1ccc(C2c3[nH]c4ccccc4c3CCN2Cc2cccn2-c2ncccn2)cc1 (configuration not stated) | inconclusive: 18.4 µM [cytotoxic, single point] | –
8 | Cc1ccc2c(c1)S/C(=C/c1ccc[n+](C)c1)N2CCO | inconclusive: 14.6 µM [cytotoxic, partial curve, poor fit] | –
9 | Cc1nnc(NC(=O)Nc2ccc(Cl)c(Cl)c2)s1 | inconclusive: 23.1 µM [cytotoxic, single point] | –
10 | COc1ccc(S(=O)(=O)Nc2ccc3oc4c(c3c2)C(=O)CC(C)(C)C4)cc1 | inconclusive: 16.4 µM [cytotoxic, partial curve, poor fit] | –
11 | COc1ccccc1CN1CCc2c([nH]c3ccccc23)C1 | – | inactive: -0.677%
12 | CCn1c(=O)c(C(=O)NCCCO)c(O)c2ccccc21 | inconclusive: 23.1 µM [cytotoxic, single point] | –
13 | CC(=O)c1cc(C#N)c(SCCC(C)C)nc1C | – | inactive: -16.7%
14 | CCc1nc(CN2CCN(c3ccc(C(F)(F)F)cn3)CC2)c(C)[nH]1 | inconclusive: 16.4 µM [cytotoxic, single point] | –
15 | COc1ccc(S(=O)(=O)N2CCOC23CCN(C(=O)c2ccc(Cl)cc2Cl)CC3)cc1 | inconclusive: 29.1 µM [cytotoxic, single point] | –
16 | O=S(=O)(Nc1ccc2ccccc2c1)N1CCCCC1 | inconclusive: 23.1 µM [cytotoxic, single point] | –
17 | CCCOc1ccc(-c2nn(-c3ccccc3)cc2C2NC(=O)NC(C)=C2C(=O)OC)cc1 (configuration not stated) | – | inactive: 14.7%
18 | CCc1ccc(C(=O)c2cn(CC(=O)Nc3cc(OC)ccc3OC)c3ccc(C)cc3c2=O)cc1 | inconclusive: 0.517 µM [rising, full curve] | –
19 | COc1ccccc1-c1c(C)oc2cc(OC(=O)c3ccco3)ccc2c1=O | inconclusive: 29.1 µM [rising, partial curve, poor fit] | –
20 | CN(Cc1ccc(C(F)(F)F)cc1)C(=O)[C@H]1O[C@@H](n2ccc(=O)[nH]c2=O)[C@H](O)[C@@H]1O | – | inactive: 0.0564%
21 | CCC(C)c1ccc(OCCn2cc(/C=N/NC(=O)CSc3nnc(C)s3)c3ccccc32)cc1 (configuration not stated) | inconclusive: 18.4 µM [cytotoxic, single point] | –
22 | CC(=O)C1CCC2C3CC(C)=C4CC(O)CCC4(C)C3CCC12C (configuration not stated) | inconclusive: 32.6 µM [cytotoxic, single point] | –
23 | O=C(NC1CCCCCC1)C(Cc1ccccc1)n1cccc1 (configuration not stated) | inconclusive: 16.4 µM [cytotoxic, single point] | –
24 | CN(C)c1nc(C=C(C#N)C#N)c(Cl)n1-c1ccc(F)cc1 | inconclusive: 20.6 µM [cytotoxic, single point] | –

Row | SMILES | Potency | activity change, negative = cytotoxic
25 | CCN1CCOC(CC(=O)Nc2cccc([N+](=O)[O-])c2)C1=O (configuration not stated) | – | inactive: -3.68%
26 | Oc1cc(Nc2cccnc2)cc2cccnc12 | active: 20.6 µM | –
27 | Cc1nc2c(OCCOc3ccccc3)cccn2c1N(C)C(=O)CCC1CCCC1 | inconclusive: 29.1 µM [cytotoxic, single point] | –
28 | Cc1ccc(N(C)S(=O)(=O)c2cc(-c3cnc(C4CC4)o3)ccc2C)cc1 | inconclusive: 20.6 µM [cytotoxic, single point] | –
29 | COc1ccc(-c2cc(C#N)nc(NN)n2)cc1 | inconclusive: 29.1 µM [cytotoxic, single point] | –
30 | O=C(NCc1ccncc1)C1CCCN(S(=O)(=O)c2cc(Cl)ccc2Cl)C1 (configuration not stated) | inconclusive: 16.4 µM [cytotoxic, single point] | –
31 | CCNS(=O)(=O)c1ccc(CCC(=O)N2CCc3ccccc3C2)cc1 | – | inactive: 10.5%
32 | CSc1nsc(SCC(=O)N2CCCCC2)n1 | – | inactive: 2.43%
33 | Cc1cccc(NC(=O)CCc2c(C)nn(-c3ccc(N4CCCCC4)nn3)c2C)c1 | – | inactive: 0.737%
34 | O=C1CCCC2=C1C1(CCSCC1)N=C(Nc1nc3ccccc3o1)N2 | – | inactive: 33.2%
35 | CCc1ccc(CNCc2c(C(=O)O)c(C)n(Cc3c(F)cccc3Cl)c2C)cc1 | – | inactive: -4.85%
36 | Cc1ccc(-c2nc3ncccn3c2N)cc1 | – | inactive: -13.6%
37 | CSc1nnc(-c2sc3cc(Cl)ccc3c2Cl)n1C | inconclusive: 29.1 µM [cytotoxic, single point] | –
38 | O=[N+]([O-])c1ccccc1/C=N/n1c(C2CCCCC2)n[nH]c1=S | – | inactive: -7.67%
39 | COc1ccc(S(=O)(=O)N(CC(=O)NCc2ccncc2)c2ccc(C)cc2)cc1Br | – | inactive: 14.1%
40 | CC(SCc1ccccc1)C(=O)Nc1ccc2c(c1)OCO2 (configuration not stated) | – | inactive: -14.6%
41 | Cc1cc(C)c(S(=O)(=O)Nc2ccccc2-c2ccccc2)c(C)c1 | inconclusive: 32.6 µM [cytotoxic, single point] | –
42 | COC(=O)C1=C(C(=O)OC)[C@@H]2N(C)c3ccc(OC)cc3[C@@]23C[C@@H](C(=O)OC)N(C(=O)NC2CCCCC2)C3=N1 | inconclusive: 29.1 µM [cytotoxic, single point] | –
43 | COc1ccc(C(CNC(=O)c2cccc(S(=O)(=O)N3CCCCC3)c2)N2CCCC2)cc1 (configuration not stated) | inconclusive: 20.6 µM [cytotoxic, partial curve] | –
44 | Cc1onc(-c2c(Cl)cccc2Cl)c1C(=O)N/N=C(\N)COc1ccc(Cl)cc1 | active: 4.11 µM | –
45 | CCOC(=O)CN(C(=O)COc1nc(-c2ccccc2)cc(C)c1C#N)c1ccccc1C | active: 3.66 µM | –
46 | Cc1cc(C)nc(Nc2n[nH]c(-c3ccccc3C)n2)n1 | – | inactive: 5.69%
47 | COc1ccc(NC(=O)CSc2ccc3nnc(-c4ccccn4)n3n2)cc1OC | – | inconclusive: 30.2%

Entries 40–41 from above:
Row | SMILES | Potency | activity change, negative = cytotoxic
40 | CC(SCc1ccccc1)C(=O)Nc1ccc2c(c1)OCO2 (configuration not stated) | – | inactive: -14.6%
41 | Cc1cc(C)c(S(=O)(=O)Nc2ccccc2-c2ccccc2)c(C)c1 | inconclusive: 32.6 µM [cytotoxic, single point] | –
